# Results published in the supplement of paper PMC8728848.
# The other results are listed elsewhere or left out.
# B1: AT5G17240(42) (Arabidopsis thaliana), Q6NQJ8 (protein)
# chain: MDLEHQTMETFLRWAAEIGISDSIDSSRFRDSCLGHSLSVSDFPDAGGRGLGAARELKKGELVLKVPRKALMTTESIIAKDLKLSDAVNLHNSLSSTQILSVCLLYEMSKEKKSFWYPYLFHIPRDYDLLATFGNFEKQALQVEDAVWATEKATAKCQSEWKEAGSLMKELELKPKFRSFQAWLWASATISSRTLHVPWDSAGCLCPVGDLFNYDAPGDYSNTPQGPESANNVEEAGLVVETHSERLTDGGFEEDVNAYCLYARRNYQLGEQVLLCYGTYTNLELLEHYGFMLEENSNDKVFIPLETSLFSLASSWPKDSLYIHQDGKLSFALISTLRLWLIPQSQRDKSVMRLVYAGSQISVKNEILVMKWMSEKCGSVLRDLPTSVTEDTVLLHNIDKLQDPELRLEQKETEAFGSEVRAFLDANCLWDVTVLSGKPIEFSRKTSRMLSKWRWSVQWRLSYKRTLADCISYCNEKMNNLLGTQDRLRDL
# Tests used:
# Test in all cases: glycan array binding signal (z-score within array); higher = stronger binding
# Settings in all cases: glycan notation: IUPAC condensed, linker removed
# [1] = target: Gal(b1-4)GlcNAc(b1-3)Gal(b1-4)GlcNAc(b1-3)Gal(b1-4)GlcNAc(b1-3)Gal(b1-4)GlcNAc(b1-2)Man(a1-3)[Gal(b1-4)GlcNAc(b1-3)Gal(b1-4)GlcNAc(b1-3)Gal(b1-4)GlcNAc(b1-3)Gal(b1-4)GlcNAc(b1-2)Man(a1-6)]Man(b1-4)GlcNAc(b1-4)GlcNAc
# Summary of the method: (§1)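 Glycan array data came from 3228 arrays in the Consortium for Functional Glycomics database, and only arrays with an available protein sequence were kept. Glycan names were put into IUPAC-condensed notation, and columns mapping to the same glycan were averaged. The binding signal is a within-array Z-score, averaged across arrays of one protein sequence run at different concentrations or buffers and across linkers. A negative Z-score can be read as non-binding.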
# [2] = target: Gal(b1-4)GlcNAc(b1-3)Gal(b1-4)GlcNAc(b1-3)Gal(b1-4)GlcNAc(b1-3)Gal(b1-4)GlcNAc(b1-2)Man(a1-3)[Gal(b1-4)GlcNAc(b1-3)Gal(b1-4)GlcNAc(b1-3)Gal(b1-4)GlcNAc(b1-3)Gal(b1-4)GlcNAc(b1-2)Man(a1-6)]Man(b1-4)GlcNAc(b1-4)[Fuc(a1-6)]GlcNAc
# Summary of the method: as §1
# [3] = target: Gal(b1-4)GlcNAc(b1-3)Gal(b1-4)GlcNAc(b1-3)Gal(b1-4)GlcNAc(b1-3)Gal(b1-4)GlcNAc(b1-2)[Gal(b1-4)GlcNAc(b1-3)Gal(b1-4)GlcNAc(b1-3)Gal(b1-4)GlcNAc(b1-3)Gal(b1-4)GlcNAc(b1-6)]Man(a1-6)[Gal(b1-4)GlcNAc(b1-3)Gal(b1-4)GlcNAc(b1-3)Gal(b1-4)GlcNAc(b1-3)Gal(b1-4)GlcNAc(b1-2)Man(a1-3)]Man(b1-4)GlcNAc(b1-4)[Fuc(a1-6)]GlcNAc
# Summary of the method: as §1
# [4] = target: Gal(b1-4)GlcNAc(b1-3)Gal(b1-4)GlcNAc(b1-3)Gal(b1-4)GlcNAc(b1-3)Gal(b1-4)GlcNAc(b1-3)Gal(b1-4)GlcNAc(b1-2)Man(a1-3)[Gal(b1-4)GlcNAc(b1-3)Gal(b1-4)GlcNAc(b1-3)Gal(b1-4)GlcNAc(b1-3)Gal(b1-4)GlcNAc(b1-3)Gal(b1-4)GlcNAc(b1-2)Man(a1-6)]Man(b1-4)GlcNAc(b1-4)GlcNAc
# Summary of the method: as §1
# [5] = target: Gal(b1-4)GlcNAc(b1-3)Gal(b1-4)GlcNAc(b1-3)Gal(b1-4)GlcNAc(b1-3)Gal(b1-4)GlcNAc(b1-3)Gal(b1-4)GlcNAc(b1-2)Man(a1-3)[Gal(b1-4)GlcNAc(b1-3)Gal(b1-4)GlcNAc(b1-3)Gal(b1-4)GlcNAc(b1-3)Gal(b1-4)GlcNAc(b1-3)Gal(b1-4)GlcNAc(b1-2)Man(a1-6)]Man(b1-4)GlcNAc(b1-4)[Fuc(a1-6)]GlcNAc
# Summary of the method: as §1
# [6] = target: Gal(b1-4)GlcNAc(b1-3)Gal(b1-4)GlcNAc(b1-3)Gal(b1-4)GlcNAc(b1-3)Gal(b1-4)GlcNAc(b1-3)Gal(b1-4)GlcNAc(b1-2)[Gal(b1-4)GlcNAc(b1-3)Gal(b1-4)GlcNAc(b1-3)Gal(b1-4)GlcNAc(b1-3)Gal(b1-4)GlcNAc(b1-3)Gal(b1-4)GlcNAc(b1-6)]Man(a1-6)[Gal(b1-4)GlcNAc(b1-3)Gal(b1-4)GlcNAc(b1-3)Gal(b1-4)GlcNAc(b1-3)Gal(b1-4)GlcNAc(b1-3)Gal(b1-4)GlcNAc(b1-2)Man(a1-3)]Man(b1-4)GlcNAc(b1-4)[Fuc(a1-6)]GlcNAc
# Summary of the method: as §1
# [7] = target: Gal(b1-4)GlcNAc(b1-3)Gal(b1-4)GlcNAc(b1-3)Gal(b1-4)GlcNAc(b1-3)Gal(b1-4)GlcNAc(b1-3)Gal(b1-4)GlcNAc(b1-3)Gal(b1-4)GlcNAc(b1-2)Man(a1-3)[Gal(b1-4)GlcNAc(b1-3)Gal(b1-4)GlcNAc(b1-3)Gal(b1-4)GlcNAc(b1-3)Gal(b1-4)GlcNAc(b1-3)Gal(b1-4)GlcNAc(b1-3)Gal(b1-4)GlcNAc(b1-2)Man(a1-6)]Man(b1-4)GlcNAc(b1-4)GlcNAc
# Summary of the method: as §1
# [8] = target: Gal(b1-4)GlcNAc(b1-3)Gal(b1-4)GlcNAc(b1-3)GalNAc
# Summary of the method: as §1
# [9] = target: Gal(b1-4)GlcNAc(b1-3)Gal(b1-4)GlcNAc(b1-3)[Gal(b1-4)GlcNAc(b1-3)Gal(b1-4)GlcNAc(b1-6)]GalNAc
# Summary of the method: as §1
# [10] = target: Gal(b1-4)GlcNAc(b1-3)Gal(b1-4)GlcNAc(b1-6)[Gal(b1-3)]GalNAc
# Summary of the method: as §1
# [11] = target: Gal(b1-4)GlcNAc(b1-3)Gal(b1-4)[Fuc(a1-3)]GlcNAc(b1-3)Gal(b1-4)[Fuc(a1-3)]GlcNAc
# Summary of the method: as §1
# [12] = target: Gal(b1-4)GlcNAc(b1-3)GalNAc
# Summary of the method: as §1
# [13] = target: Gal(b1-4)GlcNAc(b1-3)[Fuc(a1-3)GlcNAc(b1-6)]Gal(b1-4)Glc
# Summary of the method: as §1
# [14] = target: Gal(b1-4)GlcNAc(b1-3)[Gal(b1-4)GlcNAc(b1-6)]Gal(b1-4)GlcNAc
# Summary of the method: as §1
# [15] = target: Gal(b1-4)GlcNAc(b1-3)[GlcNAc(b1-6)]Gal(b1-4)GlcNAc
# Summary of the method: as §1
# [16] = target: Gal(b1-4)GlcNAc(b1-6)Gal(b1-4)GlcNAc
# Summary of the method: as §1
# [17] = target: Gal(b1-4)GlcNAc(b1-6)GalNAc
# Summary of the method: as §1
# [18] = target: Gal(b1-4)GlcNAc(b1-6)[Gal(b1-3)]GalNAc
# Summary of the method: as §1
# [19] = target: Gal(b1-4)GlcNAc(b1-6)[Gal(b1-4)GlcNAc(b1-3)]GalNAc
# Summary of the method: as §1
# Gal(b1-4)GlcNAc6P = target: Gal(b1-4)GlcNAc6P
# Summary of the method: as §1
# Gal(b1-6)Gal = target: Gal(b1-6)Gal
# Summary of the method: as §1
# Gal3S(b1-3)GalNAc = target: Gal3S(b1-3)GalNAc
# Summary of the method: as §1
# Gal3S(b1-3)GlcNAc = target: Gal3S(b1-3)GlcNAc
# Summary of the method: as §1
binder,measurement,setting,value
B1,glycan array binding signal (z-score),[1],0.658
same,glycan array binding signal (z-score),[2],0.497
same,glycan array binding signal (z-score),[3],-0.087
same,glycan array binding signal (z-score),[4],0.203
same,glycan array binding signal (z-score),[5],0.569
same,glycan array binding signal (z-score),[6],-0.295
same,glycan array binding signal (z-score),[7],-0.271
same,glycan array binding signal (z-score),[8],-0.165
same,glycan array binding signal (z-score),[9],-0.47
same,glycan array binding signal (z-score),[10],-0.397
same,glycan array binding signal (z-score),[11],-0.166
same,glycan array binding signal (z-score),[12],0.48
same,glycan array binding signal (z-score),[13],-0.259
same,glycan array binding signal (z-score),[14],-0.159
same,glycan array binding signal (z-score),[15],-0.574
same,glycan array binding signal (z-score),[16],0.289
same,glycan array binding signal (z-score),[17],1.06
same,glycan array binding signal (z-score),[18],0.049
same,glycan array binding signal (z-score),[19],-0.067
same,glycan array binding signal (z-score),Gal(b1-4)GlcNAc6P,-0.431
same,glycan array binding signal (z-score),Gal(b1-6)Gal,-0.362
same,glycan array binding signal (z-score),Gal3S(b1-3)GalNAc,-0.466
same,glycan array binding signal (z-score),Gal3S(b1-3)GlcNAc,0.16

# Reprinted at random: two records from the list
binder,measurement,setting,value
B1,glycan array binding signal (z-score),Gal3S(b1-3)GlcNAc,0.16
same,glycan array binding signal (z-score),[11],-0.166
